One test concerns the target T1, GST-tagged KPTN (human) (UniProt Q9Y664).
T1 sequence: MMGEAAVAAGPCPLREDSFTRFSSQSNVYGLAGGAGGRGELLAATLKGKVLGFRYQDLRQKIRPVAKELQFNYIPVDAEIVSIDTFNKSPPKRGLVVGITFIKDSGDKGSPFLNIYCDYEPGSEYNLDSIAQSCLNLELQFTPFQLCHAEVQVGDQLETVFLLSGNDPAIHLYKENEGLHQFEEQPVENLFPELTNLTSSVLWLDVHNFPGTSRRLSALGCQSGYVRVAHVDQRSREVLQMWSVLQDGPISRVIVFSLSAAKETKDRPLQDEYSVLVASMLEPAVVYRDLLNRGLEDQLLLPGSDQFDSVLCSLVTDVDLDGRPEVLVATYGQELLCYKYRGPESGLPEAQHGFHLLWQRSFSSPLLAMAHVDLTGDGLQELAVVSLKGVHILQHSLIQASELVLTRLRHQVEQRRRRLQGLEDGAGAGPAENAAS
The test is described as follows: pull-down; whole cell lysate with HA-FBXO2 incubated with 2 ug purified GST-KPTN at 4 C for 4 hours, glutathione-agarose beads, NP-40 buffer; only the target purified.

Test [1] addresses Flag-FBXO2 (F-box only protein 2). The test is described as follows: co-IP; anti-Flag magnetic beads on whole cell lysates of wild-type or NPRL2-knockout HEK293T cells transduced with Flag-FBXO2 (Figure 2C).

These are yes or no findings as the source states them, for the method shown. Binding seen in cells or lysates may run through a third protein. For some assays here: A result given as binding can be weak or reduced; the word gives no strength. For some assays here: Where a sequence is shown, tags or fusion partners need not be part of it.

On to HA-tagged FBXO2-Y279A/W280A, for which, in the test with GST-tagged KPTN (human), the binding result was “no binding”.

B1: KPTN (endogenous) (protein, UniProt Q9Y664 1-436)
chain: MMGEAAVAAGPCPLREDSFTRFSSQSNVYGLAGGAGGRGELLAATLKGKVLGFRYQDLRQKIRPVAKELQFNYIPVDAEIVSIDTFNKSPPKRGLVVGITFIKDSGDKGSPFLNIYCDYEPGSEYNLDSIAQSCLNLELQFTPFQLCHAEVQVGDQLETVFLLSGNDPAIHLYKENEGLHQFEEQPVENLFPELTNLTSSVLWLDVHNFPGTSRRLSALGCQSGYVRVAHVDQRSREVLQMWSVLQDGPISRVIVFSLSAAKETKDRPLQDEYSVLVASMLEPAVVYRDLLNRGLEDQLLLPGSDQFDSVLCSLVTDVDLDGRPEVLVATYGQELLCYKYRGPESGLPEAQHGFHLLWQRSFSSPLLAMAHVDLTGDGLQELAVVSLKGVHILQHSLIQASELVLTRLRHQVEQRRRRLQGLEDGAGAGPAENAAS
Take B1: the binding result in test [1] is recorded as “binds”.

The values above are taken from publication PMC12904710.
